We go through two compounds from patent US6548042B2, “Bis-phosphonate compounds” (priority 2000, dated 2003).

Series [1] can be described thus: Dose estimates in reference man calculated with MIRDOSE (3.1).
The conditions of series [2]: administration of 1.00 GBq; cited from earlier work.

As for `O=P(O)(O)C(O)(Cc1cccc([131I])c1)P(=O)(O)O` [46a, 1-hydroxy(m-[^131I and ^125I]-iodophenyl)-ethylidene-1,1-bisphosphonic acid], in series [1] (administration of 1.00 GBq), the “Estimated dose to bone surface” value is listed as 7.44 Gy and the “Estimated dose to the bone marrow” value is listed as 1.10 Gy. Further, the Tumour dose in series [1] (assuming lesion to healthy bone dose ratio of about 10:1) is 74 Gy/GBq.
With ^153Sm-EDTMP, in series [2], the “Dose to bone surface” value is 5.3-8.8 Gy, the “Dose to the bladder” value is 0.4-1.3 Gy and the “Dose to the bone marrow” value is listed as 1.20-2.00 Gy.
